The values below come from patent US11098124B2 (INSTITUT NATIONAL DE LA SANTE ET DE LA RECHERCHE MEDICALE …, priority 2016, dated 2021).

This data set in a line: Fmoc solid-phase peptide synthesis. The following applies: whole synthesis.

HYNIC-P8RI showed an isolated yield of 52%. For the same substance, the “final HPLC purity” value (RP-HPLC) is recorded as 96%.
